Reference: article PMC6461807
No constants are given. Whether binding was seen depends on the method and setting. Binding seen in cells or lysates may run through a third protein. Some binding calls cover weakened binding; strength is not graded here.

Biological target: T1, syndecan-1 (human (endogenous in HBEC-3)) (UniProt P18827)
T1 sequence: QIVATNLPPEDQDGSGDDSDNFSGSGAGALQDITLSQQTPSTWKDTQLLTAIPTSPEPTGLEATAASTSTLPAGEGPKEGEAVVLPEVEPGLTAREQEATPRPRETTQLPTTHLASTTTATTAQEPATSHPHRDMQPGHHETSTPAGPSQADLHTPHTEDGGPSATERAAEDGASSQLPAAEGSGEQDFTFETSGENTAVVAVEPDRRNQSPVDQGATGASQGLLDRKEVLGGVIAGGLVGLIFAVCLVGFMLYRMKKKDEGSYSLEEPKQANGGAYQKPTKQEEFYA
Test: co-IP; SDC1 immunoprecipitates from HBEC-3 cell extracts (500 ug cleared lysate, 3 ug antibody, protein-A agarose beads), Western blot for NDR2 and GEF-H1; SDC-1 silencing as control

- binding: binds
Substance: endogenous NDR2 (from UniProt Q9Y2H1-1 1-464) (enzyme)
